Laboratory results: PubChem BioAssay AID1224828 (NIAID, 2016)

- Screen: 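Find genes required for NF-kappaB p65 moving into the nucleus after LPS in mouse macrophages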 (primary screen)
- Cell system: mouse RAW264.7 G9 macrophage reporter cells (GFP-p65, Tnf promoter-mCherry)
- Knock-down reagent: siRNA pool against mouse genes, 100 nM
- Duration: 2 days siRNA transfection, then 40 min LPS before fixation
- Treatment: LPS (Salmonella minnesota R595) at 10 ng/ml
- Read-out: 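Microscopy ratio of nuclear to perinuclear-ring GFP-p65 signal, scaled to the plate median; gene score is the average of two replicate robust z-scores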
- Direction: p65 translocation robust z-score: higher = more nuclear NF-kappaB p65 after LPS than the plate median; nuclear/cytoplasmic p65 ratio: higher = more nuclear NF-kappaB p65
- Rule for the call: 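Called active when z exceeds 3.3 or falls under -1.56 (median of Tlr4 controls), giving activity score of at least 50; no calls for control wells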
- Calls: active = hit (p65 shift raised or lowered); inactive = no clear change
Shown is a random part of about 17,000 reagents. Of all reagents, 762 (4.5%) were called active. 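Active calls include both raised and lowered p65 entry, mostly lowered; wells with fewer than 50 cells lack a z-score.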 Raw values are not corrected between plates. Unmarked entries are inactive.

gene symbol | PubChem SID | p65 translocation robust z-score | nuclear/cytoplasmic p65 ratio, rep 1 | nuclear/cytoplasmic p65 ratio, rep 2 | low cell count flag
Or8b39 (olfactory receptor family 8 subfamily B member 39) | SID315480099 | 0.12 | 1.61 | 1.28 | enough cells to score
Mipol1 (mirror-image polydactyly 1) | SID315474741 | 0.88 | 1.65 | 1.37 | enough cells to score
Chmp1a (charged multivesicular body protein 1A) | SID315479205 | – | 1.39 | 0 | fewer than 50 cells per well; well left out of scoring
Batf (basic leucine zipper transcription factor, ATF-like) | SID315471035 | -0.76 | 1.47 | 1.53 | enough cells to score
Stk32b (serine/threonine kinase 32B) | SID315472083 | – | 1.73 | 1.4 | fewer than 50 cells per well; well left out of scoring
Gpr151 (G protein-coupled receptor 151) | SID315479494 | -1.25 | 1.33 | 1.4 | enough cells to score
Exoc3l4 (exocyst complex component 3-like 4) | SID315474895 | -0.66 | 1.39 | 1.25 | enough cells to score
D7Ertd413e (DNA segment, Chr 7, ERATO Doi 413, expressed) | SID315470955 | -1.29 | 1.36 | 1.37 | enough cells to score
Trim36 (tripartite motif-containing 36) | SID315470677 | – | 1.23 | 1.53 | fewer than 50 cells per well; well left out of scoring
Rest (RE1-silencing transcription factor) | SID315468951 | 0.46 | 1.65 | 1.52 | enough cells to score
Fam216a (family with sequence similarity 216, member A) | SID315473678 | – | 1.89 | 0.714 | fewer than 50 cells per well; well left out of scoring
Plekhb1 (pleckstrin homology domain containing B1) | SID315470563 | -1.03 | 1.24 | 1.11 | enough cells to score
Spink12 (serine peptidase inhibitor, Kazal type 12) | SID315475546 | 1.19 | 1.57 | 1.73 | enough cells to score
Use1 (unconventional SNARE in the ER 1 homolog (S. cerevisiae)) | SID315472783 | – | 1.29 | 1.38 | fewer than 50 cells per well; well left out of scoring
Dgkq (diacylglycerol kinase, theta) | SID315476911 | -1.78 (active) | 1.41 | 1.15 | enough cells to score
Grm1 (glutamate receptor, metabotropic 1) | SID315467039 | 0.72 | 1.6 | 1.69 | enough cells to score
Oprk1 (opioid receptor, kappa 1) | SID315468339 | – | 1.54 | 1.47 | fewer than 50 cells per well; well left out of scoring
Mims1 (mitochondrial inner membrane scaffold 1) | SID315476715 | 0.86 | 1.28 | 1.41 | enough cells to score
Svil (supervillin) | SID315478398 | -0.06 | 1.55 | 1.53 | enough cells to score
Or6f1 (olfactory receptor family 6 subfamily F member 1) | SID315480273 | – | 1.31 | 1.21 | fewer than 50 cells per well; well left out of scoring
Ifrd2 (interferon-related developmental regulator 2) | SID315467401 | – | 1.17 | 1.1 | fewer than 50 cells per well; well left out of scoring
Or7a37 (olfactory receptor family 7 subfamily A member 37) | SID315480649 | 1.88 | 1.74 | 1.9 | enough cells to score
Ppy (pancreatic polypeptide) | SID315468677 | – | 1.2 | 1.27 | fewer than 50 cells per well; well left out of scoring
Fem1al (fem-1 homolog A like) | SID315478017 | – | 1.09 | 1 | fewer than 50 cells per well; well left out of scoring
Fbln2 (fibulin 2) | SID315466633 | -0.94 | 1.39 | 1.4 | enough cells to score
Fchsd2 (FCH and double SH3 domains 2) | SID315477479 | 0.03 | 1.45 | 1.6 | enough cells to score
Polr2j (polymerase (RNA) II (DNA directed) polypeptide J) | SID315469032 | – | 1.4 | 1.13 | fewer than 50 cells per well; well left out of scoring
Krtap16-3 (keratin associated protein 16-3) | SID315477184 | -1.63 (active) | 1.31 | 1.4 | enough cells to score
Lsg1 (large 60S subunit nuclear export GTPase 1) | SID315478320 | 1.5 | 1.74 | 1.81 | enough cells to score
Rnf103 (ring finger protein 103) | SID315470090 | 0.89 | 1.52 | 1.33 | enough cells to score
Fam98b (family with sequence similarity 98, member B) | SID315473458 | -1.13 | 1.32 | 1.24 | enough cells to score
Ly6i (lymphocyte antigen 6 family member I) | SID315471723 | 0.29 | 1.78 | 1.57 | enough cells to score
Trpv4 | SID315472043 | -0.59 | 1.44 | 1.41 | enough cells to score
Klra6 (killer cell lectin-like receptor, subfamily A, member 6) | SID315467666 | -0.6 | 1.38 | 1.31 | enough cells to score
4932435O22Rik (RIKEN cDNA 4932435O22 gene) | SID315481172 | -0.31 | 1.25 | 1.27 | enough cells to score
Lrriq3 (leucine-rich repeats and IQ motif containing 3) | SID315474973 | 1.51 | 1.35 | 1.49 | enough cells to score
Lpar2 (lysophosphatidic acid receptor 2) | SID315471141 | -0.01 | 1.5 | 1.58 | enough cells to score
Sc5d (sterol-C5-desaturase) | SID315479238 | -0.22 | 1.39 | 1.19 | enough cells to score
Hnmt (histamine N-methyltransferase) | SID315477116 | 1.09 | 1.56 | 1.53 | enough cells to score
Tedc1 (tubulin epsilon and delta complex 1) | SID315476456 | – | 1.47 | 2.39 | fewer than 50 cells per well; well left out of scoring
Rmdn1 (regulator of microtubule dynamics 1) | SID315472351 | – | 1.29 | 1.27 | fewer than 50 cells per well; well left out of scoring
4933421I07Rik (RIKEN cDNA 4933421I07 gene) | SID315474194 | 0.01 | 1.36 | 1.39 | enough cells to score
Serpinb7 (serine (or cysteine) peptidase inhibitor, clade B, member 7) | SID315477068 | 0.02 | 1.35 | 1.31 | enough cells to score
Atp6v1g3 (ATPase, H+ transporting, lysosomal V1 subunit G3) | SID315481683 | 1.02 | 1.79 | 1.62 | enough cells to score

Laid out differently: entries from further up.
Fem1al (fem-1 homolog A like) [SID315478017]
- nuclear/cytoplasmic p65 ratio, rep 1: 1.09
- nuclear/cytoplasmic p65 ratio, rep 2: 1
- low cell count flag: fewer than 50 cells per well; well left out of scoring

Fbln2 (fibulin 2) [SID315466633]
- p65 translocation robust z-score: -0.94
- nuclear/cytoplasmic p65 ratio, rep 1: 1.39
- nuclear/cytoplasmic p65 ratio, rep 2: 1.4
- low cell count flag: enough cells to score

Fchsd2 (FCH and double SH3 domains 2) [SID315477479]
- p65 translocation robust z-score: 0.03
- nuclear/cytoplasmic p65 ratio, rep 1: 1.45
- nuclear/cytoplasmic p65 ratio, rep 2: 1.6
- low cell count flag: enough cells to score

Polr2j (polymerase (RNA) II (DNA directed) polypeptide J) [SID315469032]
- nuclear/cytoplasmic p65 ratio, rep 1: 1.4
- nuclear/cytoplasmic p65 ratio, rep 2: 1.13
- low cell count flag: fewer than 50 cells per well; well left out of scoring

Krtap16-3 (keratin associated protein 16-3) [SID315477184]
- p65 translocation robust z-score: -1.63 (active)
- nuclear/cytoplasmic p65 ratio, rep 1: 1.31
- nuclear/cytoplasmic p65 ratio, rep 2: 1.4
- low cell count flag: enough cells to score

Continued:
gene symbol | PubChem SID | p65 translocation robust z-score | nuclear/cytoplasmic p65 ratio, rep 1 | nuclear/cytoplasmic p65 ratio, rep 2 | low cell count flag
Fam229b (family with sequence similarity 229, member B) | SID315472371 | -1.47 | 1.28 | 1.15 | enough cells to score
Epop | SID315476377 | -1.79 (active) | 1.26 | 1.1 | enough cells to score
Dnttip2 (deoxynucleotidyltransferase, terminal, interacting protein 2) | SID315476181 | -0.08 | 1.25 | 1.02 | enough cells to score
Usf1 (upstream transcription factor 1) | SID315469954 | 0.27 | 1.56 | 1.54 | enough cells to score
Dmrt3 (doublesex and mab-3 related transcription factor 3) | SID315479506 | -1.15 | 1.36 | 1.2 | enough cells to score
Zfp94 (zinc finger protein 94) | SID315470137 | -0.69 | 1.42 | 1.4 | enough cells to score
Calca (calcitonin/calcitonin-related polypeptide, alpha) | SID315465728 | 0.42 | 1.38 | 1.65 | enough cells to score
Coa5 (cytochrome C oxidase assembly factor 5) | SID315475255 | -0.75 | 1.3 | 1.24 | enough cells to score
Coa5 (cytochrome C oxidase assembly factor 5) | SID315475256 | -0.43 | 1.26 | 1.46 | enough cells to score
Tmem106c (transmembrane protein 106C) | SID315481762 | 0.01 | 1.53 | 1.84 | enough cells to score
Rnf187 (ring finger protein 187) | SID315476718 | – | 1.32 | 1.47 | fewer than 50 cells per well; well left out of scoring
Or10ag2 (olfactory receptor family 10 subfamily AG member 2) | SID315480036 | -0.19 | 1.66 | 1.52 | enough cells to score
Opa1 (OPA1, mitochondrial dynamin like GTPase) | SID315474868 | 0.03 | 1.45 | 1.42 | enough cells to score
Pknox2 (Pbx/knotted 1 homeobox 2) | SID315477510 | -0.05 | 1.47 | 1.13 | enough cells to score
Gabrr1 (gamma-aminobutyric acid type A receptor subunit rho 1) | SID315466808 | -0.75 | 1.34 | 1.27 | enough cells to score
Or52e15 (olfactory receptor family 52 subfamily E member 15) | SID315480404 | -1.25 | 1.29 | 1.12 | enough cells to score
Notch4 (notch 4) | SID315468214 | -0.32 | 1.46 | 1.32 | enough cells to score
Selenov (selenoprotein V) | SID315481018 | 0.59 | 1.78 | 1.65 | enough cells to score
Cabp2 (calcium binding protein 2) | SID315470723 | – | 1.28 | 1.29 | fewer than 50 cells per well; well left out of scoring
Ubiad1 (UbiA prenyltransferase domain containing 1) | SID315474285 | -1.8 (active) | 1.36 | 1.19 | enough cells to score
Slc39a7 | SID315467110 | – | 1.9 | 0 | fewer than 50 cells per well; well left out of scoring
Eci2 (enoyl-Coenzyme A delta isomerase 2) | SID315470272 | – | 1.4 | 1.36 | fewer than 50 cells per well; well left out of scoring
Ubr3 (ubiquitin protein ligase E3 component n-recognin 3) | SID315473635 | 0.99 | 1.54 | 1.63 | enough cells to score
Ppm1l (protein phosphatase 1 (formerly 2C)-like) | SID315479593 | -2.19 (active) | 1.2 | 1.12 | enough cells to score
Slain2 (SLAIN motif family, member 2) | SID315475227 | 0.19 | 1.39 | 1.38 | enough cells to score
Cpsf3 (cleavage and polyadenylation specificity factor 3) | SID315471244 | 0.65 | 1.65 | 1.92 | enough cells to score
Or8b35 (olfactory receptor family 8 subfamily B member 35) | SID315480097 | 0.29 | 1.51 | 1.3 | enough cells to score
Zfp300 (zinc finger protein 300) | SID315479810 | -2.16 (active) | 1.33 | 1.26 | enough cells to score
Or8k37 (olfactory receptor family 8 subfamily K member 37) | SID315479943 | -0.82 | 1.6 | 1.39 | enough cells to score
Med10 (mediator complex subunit 10) | SID315470671 | -0.24 | 1.54 | 1.75 | enough cells to score
Fkbp10 (FK506 binding protein 10) | SID315466702 | 0.37 | 1.67 | 1.5 | enough cells to score
